Experimental data as given in publication PMC7949163.

Legend:
[1] = target: T1, MglB^S54A,S57A (Myxococcus xanthus) (UniProt Q1DB03); test: SEC; analytical SEC, Superdex 200 Increase 10/300, 0.5 ml/min, A280; proteins alone or MglB:MglC mixed 1:1, 2:1 and 1:2; MglB mutants mixed with MglC 2:1; both purified
T1 sequence: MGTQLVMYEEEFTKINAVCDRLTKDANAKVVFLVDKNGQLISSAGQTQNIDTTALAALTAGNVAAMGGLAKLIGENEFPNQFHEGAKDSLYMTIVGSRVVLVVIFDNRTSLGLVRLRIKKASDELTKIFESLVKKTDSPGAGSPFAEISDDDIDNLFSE

[2] = target: T2, MglB^ΔCT (Myxococcus xanthus) (UniProt Q1DB03); test: as above
T2 sequence: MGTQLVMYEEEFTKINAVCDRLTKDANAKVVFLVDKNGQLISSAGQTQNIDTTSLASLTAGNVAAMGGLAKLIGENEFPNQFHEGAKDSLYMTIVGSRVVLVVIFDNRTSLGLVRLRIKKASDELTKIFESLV

[3] = target: T3, MglB^E84A,R115A (Myxococcus xanthus) (UniProt Q1DB03); test: as above
T3 sequence: T1 sequence with A54S, A57S, E84A, R115A

[4] = target: T2, MglB^ΔCT (Myxococcus xanthus); test: SAXS; SAXSpace line collimation, 20 °C; MglB 25, 15, 10 mg/ml; MglC 35, 15, 20 mg/ml; MglBC and MglB^ΔCTC complexes freshly eluted from SEC; both purified

Measured: binding

Mutual gliding motility protein C (MglC) (Myxococcus xanthus)
binds: all assays above

Where a chain is given by its changes, count along the chain named. These are yes or no findings as the source states them, for the method shown. A result given as binding can be weak or reduced; the word gives no strength.
